These are yes or no findings as the source states them, for the method shown. In cells and extracts the contact can be indirect.
Key:
[1] = biological target: CArG box binding factor A (CBF-A) p37 isoform (mouse (endogenous in testis)) (UniProt Q99020); test: co-IP; cytoplasmic fraction of mouse testis lysate (adult; also 30 dpp), untreated or treated with 100 µg/ml RNase A, incubated overnight with anti-CBF-A antibodies SAK22 (p37 and p42) or ICCI (p42 only) or control IgGs; Protein A-Sepharose; immunoblots
[2] = biological target: cap binding protein eIF4E (mouse (endogenous in testis)) (UniProt P63073); test: pull-down; 7-methyl-GTP (m7GTP)-Sepharose 4B or protein G-Sepharose (control) incubated overnight at 4°C with cytoplasmic lysate of adult mouse testis in 1x PBS, 0.2% NP-40; lysate untreated or treated with 100 µg/ml RNase A; bound proteins on immunoblots

Amino acid sequences for entries named in this document (tags omitted).
UniProt Q99020: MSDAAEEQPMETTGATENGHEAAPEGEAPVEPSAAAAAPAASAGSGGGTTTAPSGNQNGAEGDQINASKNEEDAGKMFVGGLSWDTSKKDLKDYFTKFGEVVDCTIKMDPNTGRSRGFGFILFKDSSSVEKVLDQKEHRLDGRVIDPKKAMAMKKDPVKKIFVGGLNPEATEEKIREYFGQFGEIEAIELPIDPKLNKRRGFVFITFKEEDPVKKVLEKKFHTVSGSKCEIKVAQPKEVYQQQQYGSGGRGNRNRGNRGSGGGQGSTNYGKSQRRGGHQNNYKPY
UniProt P63073: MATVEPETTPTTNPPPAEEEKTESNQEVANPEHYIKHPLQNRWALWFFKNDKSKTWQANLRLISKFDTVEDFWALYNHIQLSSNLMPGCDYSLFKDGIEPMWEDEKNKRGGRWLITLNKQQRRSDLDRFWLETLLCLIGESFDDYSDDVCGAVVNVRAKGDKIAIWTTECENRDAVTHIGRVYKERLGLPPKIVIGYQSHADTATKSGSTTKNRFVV
UniProt Q9JMB7: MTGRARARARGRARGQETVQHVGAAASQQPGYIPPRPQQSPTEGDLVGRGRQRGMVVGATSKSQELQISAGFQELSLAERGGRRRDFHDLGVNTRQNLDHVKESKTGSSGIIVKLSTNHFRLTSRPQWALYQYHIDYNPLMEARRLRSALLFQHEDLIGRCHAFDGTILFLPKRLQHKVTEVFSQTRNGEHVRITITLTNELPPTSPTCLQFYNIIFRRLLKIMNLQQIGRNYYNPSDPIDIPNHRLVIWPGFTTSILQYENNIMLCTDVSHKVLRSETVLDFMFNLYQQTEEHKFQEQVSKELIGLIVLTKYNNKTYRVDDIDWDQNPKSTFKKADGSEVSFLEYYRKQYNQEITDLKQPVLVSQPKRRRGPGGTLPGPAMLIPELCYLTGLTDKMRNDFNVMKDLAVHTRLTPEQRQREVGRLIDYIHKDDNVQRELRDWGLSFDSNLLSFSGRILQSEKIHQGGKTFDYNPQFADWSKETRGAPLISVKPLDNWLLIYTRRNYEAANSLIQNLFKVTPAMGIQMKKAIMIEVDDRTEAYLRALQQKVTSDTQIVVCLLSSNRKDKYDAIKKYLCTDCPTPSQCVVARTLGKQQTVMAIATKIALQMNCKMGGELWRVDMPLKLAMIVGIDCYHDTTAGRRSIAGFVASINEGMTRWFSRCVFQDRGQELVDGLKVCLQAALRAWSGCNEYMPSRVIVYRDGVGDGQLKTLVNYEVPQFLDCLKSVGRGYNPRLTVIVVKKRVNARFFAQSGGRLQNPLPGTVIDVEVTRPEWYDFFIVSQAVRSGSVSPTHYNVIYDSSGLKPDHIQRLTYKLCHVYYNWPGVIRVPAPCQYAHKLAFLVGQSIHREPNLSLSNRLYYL

binding [1]	binding [2]	Molecule
no binding	–	piRNA-binding protein MIWI (from UniProt Q9JMB7 1-862)
–	no binding	CArG box binding factor A (CBF-A) p37 isoform (from UniProt Q99020 1-285)
no binding	–	MVH (Mouse Vasa Homolog/DDX4) (protein, UniProt Q61496 1-702) MGDEDWEAEILKPHVSSYVPVFEKDKYSSGANGDTFNRTSASSDIGESSKKENTSTTGGFGRGKGFGNRGFLNNKFEEGDSSGFWKESNNDCEDNQTRSRGFSKRGGCQDGNDSEASGPFRRGGRGSFRGCRGGFGLGRPNSESDQDQGTQRGGGLFGSRKPAASDSGNGDTYQSRSGSGRGGYKGLNEEVVTGSGKNSWKSETEGGESSDSQGPKVTYIPPPPPEDEDSIFAHYQTGINFDKYDTILVEVSGHDAPPAILTFEEANLCQTLNNNIAKAGYTKLTPVQKYSIPIVLAGRDLMACAQTGSGKTAAFLLPILAHMMRDGITASRFKELQEPECIIVAPTRELINQIYLEARKFSFGTCVRAVVIYGGTQFGHSVRQIVQGCNILCATPGRLMDIIGKEKIGLKQVKYLVLDEADRMLDMGFGPEMKKLISCPGMPSKEQRQTLLFSATFPEEIQRLAGDFLKSSYLFVAVGQVGGACRDVQQTILQVGQYSKREKLVEILRNIGDERTMVFVETKKKADFIATFLCQEKISTTSIHGDREQREREQALGDFRCGKCPVLVATSVAARGLDIENVQHVINFDLPSTIDEYVHRIGRTGRCGNTGRAISFFDTDSDNHLAQPLVKVLSDAQQDVPAWLEEIAFSTYVPPSFSSSTRGGAVFASVDTRKNYQGKHTLNTAGISSSQAPNPVDDESWD
